Test results taken from PMC4428482.
Results are given in words; binding and its absence hold for the method and conditions named. In cells and extracts the contact can be indirect. Some entries that bind do so weakly or less than the wild type.

T1: CeHop (STI-1) (C. elegans (endogenous in wild-type animals)) (UniProt O16259)
T1 sequence: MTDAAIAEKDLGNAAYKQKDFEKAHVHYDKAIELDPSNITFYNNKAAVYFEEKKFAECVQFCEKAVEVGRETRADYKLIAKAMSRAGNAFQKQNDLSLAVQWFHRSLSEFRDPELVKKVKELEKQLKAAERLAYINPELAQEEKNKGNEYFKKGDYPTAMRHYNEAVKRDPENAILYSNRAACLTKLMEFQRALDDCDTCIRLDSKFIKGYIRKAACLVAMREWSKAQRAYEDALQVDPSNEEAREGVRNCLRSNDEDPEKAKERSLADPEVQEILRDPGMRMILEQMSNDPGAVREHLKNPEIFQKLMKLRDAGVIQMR

B1: UNC-45 (protein, UniProt G5EG62 1-961)
chain: MVARVQTAEEIRDEGNAAVKDQDYIKADELYTEALQLTTDEDKALRPVLYRNRAMARLKRDDFEGAQSDCTKALEFDGADVKALFRRSLAREQLGNVGPAFQDAKEALRLSPNDKGIVEVLQRLVKANNDKIKQTTSLANKVTDMEKLAFRGEAKDTEQKMTALNNLLVLCRESESGATGVWNQGALVPFVLNLINDASENEEVTVTAIRILDETIKNSVRCMKFLAMHDPDGPKSVRFVCRLMCKKSTKDFVDATGILVQRVFNAMAKMDRQKEMKPDPEVAEANKIWIIRVLLELQEMLQDPKVGAVQRETCIDLFLKNLMHMDGGIPRGWSWKFVEERGLLALLDVASQIPELCEYPVSAETRQHVAICLQRLEEDMVFDTKRTIFKEKVDMFFNALISRCTNDDEGHKYRIKLSCFLITMLQGPVDIGINLITNDQLTPIMLEMAASQDHLMQGIAAELIVATVSKHERAINMLKVGIPVLRALYDSEDPTVKVRALVGLCKIGAAGGDDISKATMKEEAVISLAKTCKKFLLETEKYSVDIRRYACEGLSYLSLDADVKEWIVDDSLLLKALVLLAKKAGALCVYTLATIYANLSNAFEKPKVDEEMVKLAQFAKHHVPETHPKDTEEYVEKRVRALVEEGAVPACVAVSKTESKNALELIARSLLAFAEYEDLRGRIIAEGGTVLCLRLTKEASGEGKIKAGHAIAKLGAKADPMISFPGQRAYEVVKPLCDLLHPDVEGKANYDSLLTLTNLASVSDSIRGRILKEKAIPKIEEFWFMTDHEHLRAAAAELLLNLLFFEKFYEETVAPGTDRLKLWVLYSAEVEEERLSRASAAGFAILTEDENACARIMDEIKSWPEVFKDIAMHEDAETQRRGLMGIANIMHSSNKLCSEIVSSEVFRVLVAVTKLGTINQERAGSTEQAKRGLEAAEKFGLIKATDREIYERENQMSTIQE

Target: T1, CeHop (STI-1) (C. elegans (endogenous in wild-type animals))
Assay: co-IP; total lysate of age-synchronized wild-type C. elegans in RIPA buffer with protease inhibitors, 4°C; anti-CeHop or anti-CeAha1 antibodies, Protein A/G PLUS-Agarose beads, three washes in RIPA buffer; western blot with anti-CeHop, anti-CeAha1, anti-CeHsp90 or anti-UNC-45 antibodies

| binding | Molecule |
| --- | --- |
| binds | CeHsp90 (DAF-21) (from UniProt Q18688 1-702) |
| no binding | B1 |
